The list shows a part of the results.
biological target: T1, OsSMF1 (Oryza sativa, UniProt Q6ZLB0 1-436); assay: protein-binding microarray (RPBM); PBS, 2% BSA, 51.3 ng/ul salmon testes DNA, 50 uM zinc acetate, 200 nM TF, 25 C, 1 h; high values mean tight binding; details: protein: recombinant; tags: N-terminal polyhistidine and DsRed monomer fusion (pET32a); chain copies: 2; label: CyDye5-dUTP incorporated in the synthesized complementary strand; 3' TTTTT single-stranded linker to array surface; dsDNA, one strand shown
T1 sequence: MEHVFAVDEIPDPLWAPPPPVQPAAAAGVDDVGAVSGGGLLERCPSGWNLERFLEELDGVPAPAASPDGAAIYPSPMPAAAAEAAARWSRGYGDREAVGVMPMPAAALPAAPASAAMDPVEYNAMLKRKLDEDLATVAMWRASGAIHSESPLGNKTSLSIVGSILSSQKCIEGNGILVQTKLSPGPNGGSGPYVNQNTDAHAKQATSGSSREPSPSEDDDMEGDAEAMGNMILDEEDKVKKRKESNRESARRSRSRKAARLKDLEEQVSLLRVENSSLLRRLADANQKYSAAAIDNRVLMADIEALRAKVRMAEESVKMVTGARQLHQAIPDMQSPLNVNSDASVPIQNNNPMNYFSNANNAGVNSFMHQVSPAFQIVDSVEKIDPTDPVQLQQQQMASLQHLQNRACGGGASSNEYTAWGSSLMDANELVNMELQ
Method in brief: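 Transcription factors, each fused N-terminally to a polyhistidine tag and DsRed, were expressed in E. coli BL21-CodonPlus and purified on Ni–NTA. A custom Agilent array was made double-stranded by primer extension with Cy5-dUTP and blocked with 2% BSA. It was incubated with 200 nM protein in PBS, 2% BSA, salmon testes DNA and 50 µM zinc acetate at 25 °C for 1 h, then washed. The binding signal is per-feature fluorescence intensity (arbitrary units) read on an Axon 4000B scanner.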

Sequence | binding signal
ACAGAGATCTGTTTCGAGAAGAGGAGACACGTGTCAGCGTCGGAGTCACCTAGTGCAG | 23800 fluorescence intensity (a.u.)
CCACCGGCAGTGACGTCGACCCTGACGAGGACGCCGCCGCCGGAGTCACCTAGTGCAG | 6340 fluorescence intensity (a.u.)
TATACGGACGTAGTACGAGTACAAATACGTCACAGGCTTGCGGAGTCACCTAGTGCAG | 5520 fluorescence intensity (a.u.)
CACTTACAGCTGGACCCTATGATGCATGCATTGCATACCACGGAGTCACCTAGTGCAG | 3580 fluorescence intensity (a.u.)
GCCCGGACCATCACACCCAATCGTGGCCGTCCACACCTCCCGGAGTCACCTAGTGCAG | 4060 fluorescence intensity (a.u.)
AATAGAATTTTAAATCGAGCCTATCTCTCGTTGACTCAGACGGAGTCACCTAGTGCAG | 4970 fluorescence intensity (a.u.)
TCCTCCGCACTCAGCCGTTGCACTCCACTCCATCCGCGCTCGGAGTCACCTAGTGCAG | 4130 fluorescence intensity (a.u.)
TTAGATCCAGGGGTGTAAAGTTTTGGCGTGTCACATCAGGCGGAGTCACCTAGTGCAG | 4330 fluorescence intensity (a.u.)
AATAGCTCTCTCCTCAGTCTCTCACGGCCTCATCACCACCCGGAGTCACCTAGTGCAG | 3170 fluorescence intensity (a.u.)
GACTGCGATAGGCCTATATAAATTATCCGAGTACTAATACCGGAGTCACCTAGTGCAG | 38400 fluorescence intensity (a.u.)
TGCTGGTCGTCCTCGCCGGAATGGTTCGATTATTGGTGGACGGAGTCACCTAGTGCAG | 3280 fluorescence intensity (a.u.)
CAGTGGGTTGTGGGTGTGGTTGGTCGGCCAGCGCTGGAGCCGGAGTCACCTAGTGCAG | 3610 fluorescence intensity (a.u.)
GGAATCCAGATCTCACCCACCCCACCCCACCCACACGACGCGGAGTCACCTAGTGCAG | 3970 fluorescence intensity (a.u.)
TTAATAATAGCCATGTGCGTCATTAGACGGTAGTACGATCCGGAGTCACCTAGTGCAG | 5910 fluorescence intensity (a.u.)
ATCTCTTATTTTCCATACGTATGTTTCCCAAACTACTAAACGGAGTCACCTAGTGCAG | 5600 fluorescence intensity (a.u.)
GCATCCTCACGTGCATGTCTAACATAATATTTTGATCGATCGGAGTCACCTAGTGCAG | 3210 fluorescence intensity (a.u.)
GTGAACTCGAGCCTAGATAGGAGAACTCACTTGAGGTTTGCGGAGTCACCTAGTGCAG | 24800 fluorescence intensity (a.u.)
GTAGTTTGTGTGCGTGTTGTCGGCGTATGCATTTTAACTACGGAGTCACCTAGTGCAG | 3440 fluorescence intensity (a.u.)
TTCATGTCGCAGTCCGATTCACACGCCGACCACGACGAGCCGGAGTCACCTAGTGCAG | 3200 fluorescence intensity (a.u.)
TTCCTCCCCTTTCCCTCTCTGTCGGCGGCGTCAGCAGGCGCGGAGTCACCTAGTGCAG | 4580 fluorescence intensity (a.u.)
CGGCCTCTTGCCCGTGAACGACAGCATCAGCACCGGCGCCCGGAGTCACCTAGTGCAG | 3300 fluorescence intensity (a.u.)

Sequence | binding signal
GCTGCTCTCTCTCTCTCTCTCTCCCATCTCGTCCTCGCTTCGGAGTCACCTAGTGCAG | 19400 fluorescence intensity (a.u.)
CTGCGATCAAAATCATCGTGGCAGTAAGTCAAGATGCCTGCGGAGTCACCTAGTGCAG | 3250 fluorescence intensity (a.u.)
AGGAAAATCTTAGGTGAGTGATTGTACATCAATGTTGTCACGGAGTCACCTAGTGCAG | 3160 fluorescence intensity (a.u.)
TTCTTCCCTTCACATAGGAATTGGATGATGTGGAGACTTTCGGAGTCACCTAGTGCAG | 7630 fluorescence intensity (a.u.)
GCATCATCTTCCTTGCAACCACGTGGCTTGCTGACGGGTTCGGAGTCACCTAGTGCAG | 7760 fluorescence intensity (a.u.)
CCCTCCGTCCCAAAATAAGTGTAGTTTTGTACTATTCACGCGGAGTCACCTAGTGCAG | 17100 fluorescence intensity (a.u.)
CAGCGACGTTATTGACGATAATACAGTCTACAGATTCCAGCGGAGTCACCTAGTGCAG | 3390 fluorescence intensity (a.u.)
GCCGCCGCCGCCGCCGCCGCCGCCGCGTCCGCTTCGACTCCGGAGTCACCTAGTGCAG | 3190 fluorescence intensity (a.u.)
AAAGGCCTACAAATACCATGCACCAATGCAAAATATAGACCGGAGTCACCTAGTGCAG | 36800 fluorescence intensity (a.u.)
CCACCACCACCACCACCATCATCTCCTCCTCCTCCGACGCCGGAGTCACCTAGTGCAG | 3480 fluorescence intensity (a.u.)
CAATCCAGATCAACCAGCAAATCATCCTCACATGCAAGCTCGGAGTCACCTAGTGCAG | 14800 fluorescence intensity (a.u.)
CGTCTTCCCTTATCAGTTTAAACTGACGTAGATACGTACGCGGAGTCACCTAGTGCAG | 4710 fluorescence intensity (a.u.)
GATGAGCCTCGTCTACGATCCCGTCAGCAACGACTATCGGCGGAGTCACCTAGTGCAG | 5680 fluorescence intensity (a.u.)
TTTTATTGTTAACTAGGCATGATTTTACGTGGAATCTTGTCGGAGTCACCTAGTGCAG | 4390 fluorescence intensity (a.u.)
CTTGGTCATTTCTCATTTGTGCGTCACGGAGTGAGCAGTGCGGAGTCACCTAGTGCAG | 4370 fluorescence intensity (a.u.)
ACCGAGTCCACGGAGCAGTGAGAGAGCCAGGCAGCCAGTGCGGAGTCACCTAGTGCAG | 3960 fluorescence intensity (a.u.)
CCGCCTGCCAAAGCCTCCTGCGCCTCCGTCACCGACGCCGCGGAGTCACCTAGTGCAG | 4700 fluorescence intensity (a.u.)
ACTTAGTTTTCTTGTTTTGGAATTTTCTTAACTTTGTATTCGGAGTCACCTAGTGCAG | 3180 fluorescence intensity (a.u.)
CGACAACGATGGCTGCCTTGCCAAGTCATTATACATTAGACGGAGTCACCTAGTGCAG | 5880 fluorescence intensity (a.u.)
ACAAAGATTCTCCACTAGCAGCTTGTGACAAGCATGCACACGGAGTCACCTAGTGCAG | 3300 fluorescence intensity (a.u.)
GTGCGAGCTGCGCCCGTGTGATGTGGGCGGGTGGGTGTTCCGGAGTCACCTAGTGCAG | 3660 fluorescence intensity (a.u.)

Another view of part of the listing above.
Sequence	binding signal
GCCGCCGCCGCCGCCGCCGCCGCCGCGTCCGCTTCGACTCCGGAGTCACCTAGTGCAG	3190 fluorescence intensity (a.u.)
AAAGGCCTACAAATACCATGCACCAATGCAAAATATAGACCGGAGTCACCTAGTGCAG	36800 fluorescence intensity (a.u.)
CCACCACCACCACCACCATCATCTCCTCCTCCTCCGACGCCGGAGTCACCTAGTGCAG	3480 fluorescence intensity (a.u.)
